From publication PMC12216326
No constants are given. Whether binding was seen depends on the method and setting. Some entries that bind do so weakly or less than the wild type.

Sequences of proteins named here, by UniProt entry; tags and fusion partners are left off. A change or cut given only in a name is not applied to a line headed by its entry.
UniProt P03466: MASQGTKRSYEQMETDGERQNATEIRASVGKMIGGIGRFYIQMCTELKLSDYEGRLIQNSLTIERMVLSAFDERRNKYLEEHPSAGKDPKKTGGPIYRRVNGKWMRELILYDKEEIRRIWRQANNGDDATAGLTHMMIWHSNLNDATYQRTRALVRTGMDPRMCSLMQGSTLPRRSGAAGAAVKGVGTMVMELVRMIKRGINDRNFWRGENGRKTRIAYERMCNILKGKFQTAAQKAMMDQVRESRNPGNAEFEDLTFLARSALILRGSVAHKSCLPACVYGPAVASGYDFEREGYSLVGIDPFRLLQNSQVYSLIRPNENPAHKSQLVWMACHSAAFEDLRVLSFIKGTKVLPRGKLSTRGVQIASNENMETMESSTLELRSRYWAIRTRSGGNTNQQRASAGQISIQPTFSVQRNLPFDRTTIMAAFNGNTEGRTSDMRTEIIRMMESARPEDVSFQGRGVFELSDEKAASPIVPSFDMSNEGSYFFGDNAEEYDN
UniProt Q96FV9: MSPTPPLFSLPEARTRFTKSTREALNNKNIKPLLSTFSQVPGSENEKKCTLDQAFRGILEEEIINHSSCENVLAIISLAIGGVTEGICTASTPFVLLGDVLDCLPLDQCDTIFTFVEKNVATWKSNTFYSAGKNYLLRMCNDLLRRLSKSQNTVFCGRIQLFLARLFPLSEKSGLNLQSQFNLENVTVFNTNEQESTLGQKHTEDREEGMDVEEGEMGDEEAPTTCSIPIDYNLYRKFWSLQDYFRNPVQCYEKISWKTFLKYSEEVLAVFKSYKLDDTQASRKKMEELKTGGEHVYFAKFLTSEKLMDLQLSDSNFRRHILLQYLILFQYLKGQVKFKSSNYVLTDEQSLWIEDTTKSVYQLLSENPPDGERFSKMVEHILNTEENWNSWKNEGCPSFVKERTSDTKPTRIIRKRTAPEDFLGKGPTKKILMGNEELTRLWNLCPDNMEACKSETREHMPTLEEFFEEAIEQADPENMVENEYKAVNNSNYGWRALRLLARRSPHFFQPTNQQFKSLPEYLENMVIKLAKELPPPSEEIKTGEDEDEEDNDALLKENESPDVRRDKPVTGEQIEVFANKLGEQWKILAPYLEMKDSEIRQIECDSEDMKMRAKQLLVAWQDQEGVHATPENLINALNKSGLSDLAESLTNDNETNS

Assays:
[1] = target: GST-DDX39B (residues 1-428) (human) (UniProt Q13838)
[2] = target: GST-LENG8 (residues 549-800) (human) (UniProt Q96PV6)

Substance | binding [1] | binding [2]
Recombinant influenza virus A/PR/8/34 NP protein (from UniProt P03466 1-498) | binds | 
human THO complex (from UniProt Q96FV9 1-657; Q8NI27 1-1180; Q96J01 1-351; Q13769 12-230; Q6I9Y2 1-204) |  | no binding (tested: 1 µM of GST-LENG8)
